{"source": "patent US20180140578A1", "about": "“METHODS AND COMPOSITIONS FOR THE DIAGNOSIS AND SELECTIVE TREATMENT OF CANCER” (Board of Regents of the University of Texas System, priority 2016, published 2018)", "origin": "cited, not measured here", "conditions": "patients with metastatic cancer; cited from earlier work", "note": "Some entries share one result that the patent states for a list of compounds. At least one compound was matched to its structure with a doubt left."}
{"smiles": "NS(=O)(=O)c1ccc(S(=O)(=O)Nc2cccc3c(Cl)c[nH]c23)cc1", "note": "[Indisulam, indisulam]", "values": [{"measurement": "objective response rates (which include stable disease)", "value": "less than 30%"}, {"measurement": "patients with a clinical response", "value": "< 10", "unit": "%"}]}
{"smiles": "O=C(NS(=O)(=O)c1ccc(Br)s1)c1ccc(Cl)cc1Cl", "note": "[tasisulam]", "values": [{"measurement": "objective response rates (which include stable disease)", "value": "less than 30%"}, {"measurement": "patients with a clinical response", "value": "< 10", "unit": "%"}]}
{"smiles": "Nc1ccc(S(=O)(=O)Nc2cnc3c(Cl)cccc3n2)cc1", "note": "[CQS, chloroquinoxaline sulfonamide]", "values": [{"measurement": "objective response rates (which include stable disease)", "value": "less than 30%"}, {"measurement": "patients with a clinical response", "value": "< 10", "unit": "%"}]}
